According to the supplement of paper PMC5949888:
Most values lie at the floor of the assay. Slopes are relative: functional sequences can read slightly below zero.

system: Saccharomyces cerevisiae PS128 hsf1 delta, HSF1(1-493) fusion; assay: growth estimate (transactivation domain function in HSF1 fusion, heat-shock survival) (a.u. (slope of normalised read count over time)); higher = stronger growth at 37°C, i.e. more transactivation activity; details: library: random library

Q: Which growth estimate does the source give for EAVRPTKDLM here?
A: < -0.25

Q: How did the growth estimate turn out when AIME was run?
A: < -0.25

Q: With FRRRSIYLALEIFKAIAVLL as the substance, how does the growth estimate read?
A: < -0.25

Q: For LIRVKEQGFCAA, which growth estimate is on record?
A: < -0.25

Q: Which growth estimate does the source give for DTTGVYKIQTWHCRSLGRTR here?
A: < -0.25

Q: How did the growth estimate turn out when LGTNCVS was run?
A: -0.245

Q: How did the growth estimate turn out when SSRGHRARSSSPGAARTVKF was run?
A: < -0.25

Q: Which growth estimate does the source give for RYICPGTIS here?
A: < -0.25

Q: For GDLIKMYRGMCKCFCMVYGP, which growth estimate is on record?
A: < -0.25

Q: Which growth estimate does the source give for GANPVGRF here?
A: < -0.25

Q: Which growth estimate does the source give for CIGFSTQSLVVDQFAHRRSA here?
A: < -0.25

Q: For SRWDLVVKAVEGRGCCCARF, which growth estimate is on record?
A: < -0.25

Q: For ADSIRSESRSPLG, which growth estimate is on record?
A: < -0.25

Q: How did the growth estimate turn out when LLNKC was run?
A: < -0.25

Q: With VIGVVRGGIMKGKRTLGGPC as the substance, how does the growth estimate read?
A: < -0.25

Q: Which growth estimate does the source give for RAICTTAPERAAPPEGAGSF here?
A: < -0.25

Q: How did the growth estimate turn out when PKTMRSRPTEVAGVALGTGF was run?
A: < -0.25

Q: FTDTSPFRITSAHL was tested. Which growth estimate did it give?
A: < -0.25

Q: With PWLVTKRWTCILIFAVVSQG as the substance, how does the growth estimate read?
A: < -0.25

Q: Which growth estimate does the source give for VECDRTFSRRRVV here?
A: < -0.25

Q: Which growth estimate does the source give for GQLLLTLASLPRLKQSTRSR here?
A: < -0.25

Q: For ISCVSQSNA, which growth estimate is on record?
A: < -0.25

Q: For GISASRPNYVASKMRITCGC, which growth estimate is on record?
A: < -0.25

Q: Which growth estimate does the source give for RAAHTLPLTEAALEAPSQVT here?
A: < -0.25

Q: With TDGAVCTRHE as the substance, how does the growth estimate read?
A: < -0.25

Q: For LVIVQYYLPGFVSS, which growth estimate is on record?
A: < -0.25

Q: For AVSYSRSWDCSERIR, which growth estimate is on record?
A: < -0.25

Q: How did the growth estimate turn out when CRGFREGS was run?
A: < -0.25

Q: For NRVYLLMLIFSIRLGRIIAF, which growth estimate is on record?
A: < -0.25

Q: How did the growth estimate turn out when GKDDWWPGP was run?
A: < -0.25

Q: How did the growth estimate turn out when SVVIEK was run?
A: < -0.25

Q: For RIGWGCIGIRCDAAVC, which growth estimate is on record?
A: < -0.25

Q: With VVTVGPSYSHVVL as the substance, how does the growth estimate read?
A: < -0.25

Q: VSTNIGYLGDLLQTGPIWVP was tested. Which growth estimate did it give?
A: < -0.25

Q: SSWDYVRHGAAKMSGATRRI was tested. Which growth estimate did it give?
A: < -0.25

Q: HMQELYLVGKLASTSDSLDL was tested. Which growth estimate did it give?
A: < -0.25

Q: Which growth estimate does the source give for LAQVRVTQVIM here?
A: < -0.25

Q: For GNS, which growth estimate is on record?
A: < -0.25

Q: With SCGSFKQGFPLRIPRPLLKL as the substance, how does the growth estimate read?
A: < -0.25

Q: Which growth estimate does the source give for SDSGLAKATLFVPTPTNREV here?
A: < -0.25

Q: How did the growth estimate turn out when VEVLSKDDVKIATALPACIS was run?
A: < -0.25

Q: SSLVTVISVLNHLLII was tested. Which growth estimate did it give?
A: < -0.25

Q: Which growth estimate does the source give for TGGHHKRLQHGAVCPVGVID here?
A: < -0.25

Q: For IRER, which growth estimate is on record?
A: < -0.25

Q: GTRPRGTWSAQSPTVTGCLG was tested. Which growth estimate did it give?
A: < -0.25

Q: For RVFWACALFLPRKIFRFVLR, which growth estimate is on record?
A: < -0.25

Q: With RYGLAFGPVCVSTTPKGLSG as the substance, how does the growth estimate read?
A: < -0.25

Q: ARGRE was tested. Which growth estimate did it give?
A: < -0.25

Q: GVGCVYGGRLSYDLVERSGS was tested. Which growth estimate did it give?
A: < -0.25

Q: LDLSASQRLWRASGISFAFC was tested. Which growth estimate did it give?
A: < -0.25

Q: For VVEVRISYLDHSVRKPNALN, which growth estimate is on record?
A: < -0.25

Q: For CITVLIRVSASPVRIPSNSQ, which growth estimate is on record?
A: < -0.25

Q: With SLLRDRSWTSHDLVLGVQVE as the substance, how does the growth estimate read?
A: < -0.25

Q: Which growth estimate does the source give for HAASGPV here?
A: < -0.25

Q: With VQAQRCANREAHEWGDDRDL as the substance, how does the growth estimate read?
A: < -0.25

Q: LYISPTDRSGEFLRVAWPAH was tested. Which growth estimate did it give?
A: < -0.25

Q: CTFHGDPASDRRR was tested. Which growth estimate did it give?
A: < -0.25

Q: For FQLPGAM, which growth estimate is on record?
A: < -0.25

Q: LWRDRGSSNCTGFEGC was tested. Which growth estimate did it give?
A: < -0.25

Q: Which growth estimate does the source give for TRWVLK here?
A: < -0.25

Q: LDAYRWATLFVLGRTISKLV was tested. Which growth estimate did it give?
A: < -0.25

Q: How did the growth estimate turn out when RRPEPRVMQGTIFAVLSWPL was run?
A: -0.243

Q: For GVSFMRLTLLNSTYVPLSFF, which growth estimate is on record?
A: < -0.25

Q: For LPLDGLCSRSVARELETIWC, which growth estimate is on record?
A: < -0.25

Q: AWPCQRV was tested. Which growth estimate did it give?
A: < -0.25

Q: For TDECSGNIFLTDTGHHRSSG, which growth estimate is on record?
A: < -0.25

Q: For RGYHLGCIG, which growth estimate is on record?
A: < -0.25

Q: For STGAYRIPSCCEPRRFVILA, which growth estimate is on record?
A: < -0.25

Q: How did the growth estimate turn out when TNTFKKSSS was run?
A: -0.248

Q: AFTVLSWNVNKSIPSMRGT was tested. Which growth estimate did it give?
A: < -0.25

Q: Which growth estimate does the source give for RLTPRWVGMGFPNLDGGVAS here?
A: < -0.25

Q: Which growth estimate does the source give for DFDG here?
A: < -0.25

Q: LWPRTQWRPHSSYETGPYKI was tested. Which growth estimate did it give?
A: < -0.25

Q: RYSGAAIWSVTRRHLIEATL was tested. Which growth estimate did it give?
A: < -0.25

Q: With STRC as the substance, how does the growth estimate read?
A: < -0.25

Q: For EWVHVCIAL, which growth estimate is on record?
A: < -0.25

Q: With TRLNVSIVPGPLFGGRVLRA as the substance, how does the growth estimate read?
A: < -0.25

Q: For LMVALVEAT, which growth estimate is on record?
A: < -0.25

Q: For YVYTS, which growth estimate is on record?
A: < -0.25

Q: For LGDEGTEPSG, which growth estimate is on record?
A: < -0.25

Q: With WETSIS as the substance, how does the growth estimate read?
A: < -0.25

Q: SLVGLTGC was tested. Which growth estimate did it give?
A: < -0.25

Q: EEDRFTLNVAQMDANPSVWR was tested. Which growth estimate did it give?
A: < -0.25

Q: With RPI as the substance, how does the growth estimate read?
A: < -0.25

Q: SSRG was tested. Which growth estimate did it give?
A: < -0.25

Q: For SLPASPRVARRSMCFPRG, which growth estimate is on record?
A: < -0.25

Q: MDCDQGFSTGRPAHLLHFKA was tested. Which growth estimate did it give?
A: < -0.25

Q: How did the growth estimate turn out when GFVPLTGVLSTSGRAQGKSV was run?
A: < -0.25

Q: For PLCYPSREESTNCGLALHRL, which growth estimate is on record?
A: < -0.25

Q: SRSEGPTPERQNVLTLTNAS was tested. Which growth estimate did it give?
A: -0.246

Q: ALGIRTAREA was tested. Which growth estimate did it give?
A: < -0.25

Q: RGESRHLLLLIAVNAFRAAR was tested. Which growth estimate did it give?
A: < -0.25

Q: Which growth estimate does the source give for QGVYLGHNRNSVLTP here?
A: < -0.25

Q: How did the growth estimate turn out when SRGLLWNQFWRQ was run?
A: < -0.25

Q: NRNWHALKHVLH was tested. Which growth estimate did it give?
A: < -0.25

Q: EVIGVLRLDQRPHYSAFTTR was tested. Which growth estimate did it give?
A: < -0.25

Q: VLGQIVECCG was tested. Which growth estimate did it give?
A: < -0.25

Q: How did the growth estimate turn out when CGSWIGGLTDCLHRCTVRGT was run?
A: < -0.25

Q: For LFDARVDCRVHHLL, which growth estimate is on record?
A: < -0.25

Q: GRGTASMRAGGMDTASAGLP was tested. Which growth estimate did it give?
A: < -0.25

Q: Which growth estimate does the source give for YHGS here?
A: < -0.25

Q: FHDSPRPRSLDTETLPGGHV was tested. Which growth estimate did it give?
A: < -0.25

Q: Which growth estimate does the source give for SVGRRKNIL here?
A: < -0.25

Q: LRSDGWMFSPSWCLSSSSVG was tested. Which growth estimate did it give?
A: < -0.25

Q: WKVAVVLAQGRQPMSRLDGA was tested. Which growth estimate did it give?
A: < -0.25

Q: Which growth estimate does the source give for VCSPFFPLASSNSRGM here?
A: < -0.25

Q: Which growth estimate does the source give for PLGRPALLVRVFSLRLHLLN here?
A: < -0.25

Q: For DFMRFGSTVDFHDRAFGMLE, which growth estimate is on record?
A: < -0.25

Q: Which growth estimate does the source give for LVTLSYVSKSFVYHQRSCHA here?
A: < -0.25

Q: For LRCWRCYARFRKTWGLLTLD, which growth estimate is on record?
A: < -0.25

Q: How did the growth estimate turn out when PAYDTALYRFAL was run?
A: < -0.25

Q: Which growth estimate does the source give for NDRPFEVQSRAVCVHLPRN here?
A: < -0.25

Q: With GGYLPRSGQQIKPCEGIIFA as the substance, how does the growth estimate read?
A: < -0.25

Q: FALAYRHISTMTIGSIGKHK was tested. Which growth estimate did it give?
A: < -0.25

Q: For GSYRVIGRDTSDADILYLDA, which growth estimate is on record?
A: -0.225

Q: CLRNVKHRFEVLVMDKGPAC was tested. Which growth estimate did it give?
A: < -0.25

Q: Which growth estimate does the source give for NEGRRGSLAIGGSVSVLKQH here?
A: < -0.25

Q: For RELLFLPTSCFMLH, which growth estimate is on record?
A: < -0.25

Q: With LGFQENS as the substance, how does the growth estimate read?
A: < -0.25

Q: IVRRTIVSE was tested. Which growth estimate did it give?
A: < -0.25

Q: For FDFRYG, which growth estimate is on record?
A: < -0.25

Q: Which growth estimate does the source give for LGLVRVCCMGVCTSESWSVI here?
A: < -0.25

Q: How did the growth estimate turn out when FSAQLGAWPLTSI was run?
A: -0.233

Q: With VAPIYVMSANSVIE as the substance, how does the growth estimate read?
A: < -0.25

Q: How did the growth estimate turn out when IHDRWLLSGLGIDKTAKWLK was run?
A: < -0.25

Q: YTRRPG was tested. Which growth estimate did it give?
A: < -0.25

Q: With VTETRRVPRVRGCSICGLRN as the substance, how does the growth estimate read?
A: < -0.25

Q: Which growth estimate does the source give for GTSVIFVGRVPANPQQV here?
A: -0.225

Q: IHRVRRQMRSPDIIG was tested. Which growth estimate did it give?
A: < -0.25

Q: Which growth estimate does the source give for GFNGG here?
A: < -0.25

Q: For YDQVLKGVVRLKVRVKTGPG, which growth estimate is on record?
A: < -0.25

Q: How did the growth estimate turn out when SAAP was run?
A: < -0.25

Q: Which growth estimate does the source give for NLRAS here?
A: < -0.25

Q: For CFIMYFLVIGSML, which growth estimate is on record?
A: < -0.25

Q: For GTGLVRTKWLSSGVPDQNQW, which growth estimate is on record?
A: < -0.25

Q: Which growth estimate does the source give for RLVAALSCCCHVSVSRIA here?
A: < -0.25

Q: For VRYV, which growth estimate is on record?
A: < -0.25

Q: With SWLVGATTP as the substance, how does the growth estimate read?
A: < -0.25

Q: With STSAGRAASPRIAGET as the substance, how does the growth estimate read?
A: < -0.25

Q: HGLTIEPPLPNSPYSAVMPA was tested. Which growth estimate did it give?
A: < -0.25

Q: AMCRDEQGPGVVFVQRTYRF was tested. Which growth estimate did it give?
A: < -0.253

Q: Which growth estimate does the source give for KTTKFPSKRRFGIRWQDGAV here?
A: -0.246

Q: Which growth estimate does the source give for PSDERGSGLLSSRIRG here?
A: < -0.25
